Source: article PMC7726150
No constants are given. Whether binding was seen depends on the method and setting. Binding seen in cells or lysates may run through a third protein. A yes stands for co-enrichment or nearness to the bait. Other partners may have been found.

Sequences of proteins named here, by UniProt entry; tags and fusion partners are left off. A change or cut given only in a name is not applied to a line headed by its entry. Residues count along the entry.
UniProt O75581, residues 20-1613: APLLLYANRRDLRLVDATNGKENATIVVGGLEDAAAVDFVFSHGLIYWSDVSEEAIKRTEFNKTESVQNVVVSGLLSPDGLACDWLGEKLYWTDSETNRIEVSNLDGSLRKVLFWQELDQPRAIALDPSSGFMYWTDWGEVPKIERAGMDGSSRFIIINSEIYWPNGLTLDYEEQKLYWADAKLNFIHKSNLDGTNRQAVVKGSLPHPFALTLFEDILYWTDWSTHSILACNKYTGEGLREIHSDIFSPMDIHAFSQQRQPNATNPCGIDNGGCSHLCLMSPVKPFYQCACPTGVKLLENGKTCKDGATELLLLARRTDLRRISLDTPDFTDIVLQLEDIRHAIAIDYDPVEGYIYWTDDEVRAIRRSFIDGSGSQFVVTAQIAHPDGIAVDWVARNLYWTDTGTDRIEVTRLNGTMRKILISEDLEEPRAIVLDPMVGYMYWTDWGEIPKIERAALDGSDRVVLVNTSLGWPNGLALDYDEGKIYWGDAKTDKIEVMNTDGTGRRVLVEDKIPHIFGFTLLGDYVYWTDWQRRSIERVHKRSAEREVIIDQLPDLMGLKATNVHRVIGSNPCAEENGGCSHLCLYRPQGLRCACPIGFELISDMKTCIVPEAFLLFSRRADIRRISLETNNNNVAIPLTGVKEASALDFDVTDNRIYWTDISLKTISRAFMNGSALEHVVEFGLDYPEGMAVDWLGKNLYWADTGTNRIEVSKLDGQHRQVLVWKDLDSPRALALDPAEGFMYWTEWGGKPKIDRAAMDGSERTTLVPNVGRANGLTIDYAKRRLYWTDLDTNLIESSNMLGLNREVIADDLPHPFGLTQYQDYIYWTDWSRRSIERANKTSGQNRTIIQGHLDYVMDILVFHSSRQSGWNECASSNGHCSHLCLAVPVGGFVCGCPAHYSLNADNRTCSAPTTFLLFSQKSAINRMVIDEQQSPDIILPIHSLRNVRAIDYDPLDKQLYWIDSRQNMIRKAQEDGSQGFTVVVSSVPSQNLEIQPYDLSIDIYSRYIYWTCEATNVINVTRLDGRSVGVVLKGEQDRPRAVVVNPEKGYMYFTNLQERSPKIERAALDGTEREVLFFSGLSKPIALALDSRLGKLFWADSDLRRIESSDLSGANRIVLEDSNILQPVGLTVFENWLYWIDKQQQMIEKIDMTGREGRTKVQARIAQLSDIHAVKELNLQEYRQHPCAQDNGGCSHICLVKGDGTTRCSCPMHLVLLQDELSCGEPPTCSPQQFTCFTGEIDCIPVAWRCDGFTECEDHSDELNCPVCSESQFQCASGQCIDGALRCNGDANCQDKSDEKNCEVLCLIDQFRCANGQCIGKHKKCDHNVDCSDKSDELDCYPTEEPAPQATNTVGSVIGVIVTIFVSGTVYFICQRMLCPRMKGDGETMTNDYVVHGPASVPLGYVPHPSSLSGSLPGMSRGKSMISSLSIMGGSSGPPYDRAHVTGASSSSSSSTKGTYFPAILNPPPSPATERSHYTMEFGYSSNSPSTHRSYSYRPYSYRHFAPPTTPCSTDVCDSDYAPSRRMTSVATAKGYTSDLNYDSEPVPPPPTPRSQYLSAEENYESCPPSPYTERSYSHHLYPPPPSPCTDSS
UniProt Q99816: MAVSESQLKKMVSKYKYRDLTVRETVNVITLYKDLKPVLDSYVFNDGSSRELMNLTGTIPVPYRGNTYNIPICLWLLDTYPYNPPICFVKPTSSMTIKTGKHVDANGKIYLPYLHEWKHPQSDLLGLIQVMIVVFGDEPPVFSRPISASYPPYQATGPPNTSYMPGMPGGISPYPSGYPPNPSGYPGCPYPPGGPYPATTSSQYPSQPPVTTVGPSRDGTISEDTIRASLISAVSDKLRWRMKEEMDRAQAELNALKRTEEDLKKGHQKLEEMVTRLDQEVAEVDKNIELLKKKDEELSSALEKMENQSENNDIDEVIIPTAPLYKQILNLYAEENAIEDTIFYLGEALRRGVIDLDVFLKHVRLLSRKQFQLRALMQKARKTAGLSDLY
UniProt Q9UQB8: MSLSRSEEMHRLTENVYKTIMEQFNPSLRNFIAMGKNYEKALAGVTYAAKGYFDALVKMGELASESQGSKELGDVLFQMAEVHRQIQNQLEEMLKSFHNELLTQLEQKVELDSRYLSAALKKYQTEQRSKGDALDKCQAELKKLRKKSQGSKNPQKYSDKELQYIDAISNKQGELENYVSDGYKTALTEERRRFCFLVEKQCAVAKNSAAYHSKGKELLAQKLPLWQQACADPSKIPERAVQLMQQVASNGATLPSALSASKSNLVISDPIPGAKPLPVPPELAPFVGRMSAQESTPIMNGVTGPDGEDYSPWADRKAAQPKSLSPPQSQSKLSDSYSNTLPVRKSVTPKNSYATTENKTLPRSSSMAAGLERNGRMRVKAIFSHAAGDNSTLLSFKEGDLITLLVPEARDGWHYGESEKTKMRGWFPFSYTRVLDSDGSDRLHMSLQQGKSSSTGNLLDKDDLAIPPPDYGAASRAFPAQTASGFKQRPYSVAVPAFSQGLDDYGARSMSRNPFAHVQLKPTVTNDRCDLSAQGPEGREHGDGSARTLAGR
UniProt Q92783: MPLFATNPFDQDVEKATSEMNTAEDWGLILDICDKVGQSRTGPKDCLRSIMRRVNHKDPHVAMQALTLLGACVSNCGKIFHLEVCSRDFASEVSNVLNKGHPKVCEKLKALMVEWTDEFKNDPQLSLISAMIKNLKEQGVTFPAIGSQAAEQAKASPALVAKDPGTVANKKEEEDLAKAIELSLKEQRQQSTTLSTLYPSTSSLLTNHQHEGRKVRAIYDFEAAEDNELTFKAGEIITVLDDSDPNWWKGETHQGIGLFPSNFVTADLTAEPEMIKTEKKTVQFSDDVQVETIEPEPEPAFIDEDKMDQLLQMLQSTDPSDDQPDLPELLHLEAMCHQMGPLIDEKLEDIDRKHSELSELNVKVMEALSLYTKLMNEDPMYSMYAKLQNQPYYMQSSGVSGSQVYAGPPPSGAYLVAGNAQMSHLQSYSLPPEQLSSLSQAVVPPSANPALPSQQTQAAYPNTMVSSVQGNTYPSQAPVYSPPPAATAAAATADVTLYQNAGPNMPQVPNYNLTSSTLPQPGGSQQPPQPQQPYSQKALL
UniProt O14964: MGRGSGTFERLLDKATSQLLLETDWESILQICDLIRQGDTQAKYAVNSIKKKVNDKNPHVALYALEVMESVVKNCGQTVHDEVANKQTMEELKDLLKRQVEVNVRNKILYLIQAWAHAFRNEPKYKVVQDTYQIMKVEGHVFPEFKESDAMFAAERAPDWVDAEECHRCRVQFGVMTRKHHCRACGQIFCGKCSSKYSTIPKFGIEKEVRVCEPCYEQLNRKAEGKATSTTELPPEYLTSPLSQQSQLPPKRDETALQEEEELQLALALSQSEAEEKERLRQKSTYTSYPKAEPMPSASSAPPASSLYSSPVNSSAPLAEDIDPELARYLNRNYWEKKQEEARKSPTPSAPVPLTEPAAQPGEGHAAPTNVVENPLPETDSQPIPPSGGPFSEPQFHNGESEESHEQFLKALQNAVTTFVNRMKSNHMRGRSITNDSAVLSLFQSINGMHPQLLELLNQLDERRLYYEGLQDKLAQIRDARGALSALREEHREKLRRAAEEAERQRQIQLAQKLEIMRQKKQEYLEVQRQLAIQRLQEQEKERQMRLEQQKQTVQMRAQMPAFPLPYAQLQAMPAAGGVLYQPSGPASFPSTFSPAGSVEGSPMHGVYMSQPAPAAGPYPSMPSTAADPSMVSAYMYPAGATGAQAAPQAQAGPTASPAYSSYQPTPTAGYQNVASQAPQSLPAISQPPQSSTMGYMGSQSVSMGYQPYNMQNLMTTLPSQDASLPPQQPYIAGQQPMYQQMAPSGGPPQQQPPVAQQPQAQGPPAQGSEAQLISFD
UniProt Q9UK41: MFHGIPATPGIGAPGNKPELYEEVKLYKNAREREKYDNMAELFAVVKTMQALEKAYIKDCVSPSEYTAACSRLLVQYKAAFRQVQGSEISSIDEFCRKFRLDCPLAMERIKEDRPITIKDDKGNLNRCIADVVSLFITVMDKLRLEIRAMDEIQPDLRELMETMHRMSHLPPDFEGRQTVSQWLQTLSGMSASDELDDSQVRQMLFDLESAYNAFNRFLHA
UniProt O14641: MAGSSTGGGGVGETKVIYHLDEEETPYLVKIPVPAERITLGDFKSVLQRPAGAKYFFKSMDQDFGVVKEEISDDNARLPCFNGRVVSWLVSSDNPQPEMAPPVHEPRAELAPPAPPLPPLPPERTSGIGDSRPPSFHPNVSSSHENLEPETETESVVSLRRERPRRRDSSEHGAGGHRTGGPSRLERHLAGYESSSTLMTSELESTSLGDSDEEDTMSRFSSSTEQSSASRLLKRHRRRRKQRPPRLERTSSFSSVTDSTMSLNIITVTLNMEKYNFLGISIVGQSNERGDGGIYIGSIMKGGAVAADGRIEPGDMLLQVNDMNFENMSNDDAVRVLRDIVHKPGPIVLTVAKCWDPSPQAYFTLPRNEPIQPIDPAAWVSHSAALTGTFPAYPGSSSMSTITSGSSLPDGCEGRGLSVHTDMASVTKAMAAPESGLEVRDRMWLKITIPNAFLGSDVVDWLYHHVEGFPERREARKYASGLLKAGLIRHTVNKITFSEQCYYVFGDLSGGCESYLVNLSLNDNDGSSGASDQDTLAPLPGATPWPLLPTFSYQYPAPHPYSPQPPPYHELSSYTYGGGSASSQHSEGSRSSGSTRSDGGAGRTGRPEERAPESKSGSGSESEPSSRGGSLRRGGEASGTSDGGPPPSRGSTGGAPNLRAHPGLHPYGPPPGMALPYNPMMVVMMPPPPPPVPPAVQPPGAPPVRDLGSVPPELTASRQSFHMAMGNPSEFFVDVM
UniProt O00151: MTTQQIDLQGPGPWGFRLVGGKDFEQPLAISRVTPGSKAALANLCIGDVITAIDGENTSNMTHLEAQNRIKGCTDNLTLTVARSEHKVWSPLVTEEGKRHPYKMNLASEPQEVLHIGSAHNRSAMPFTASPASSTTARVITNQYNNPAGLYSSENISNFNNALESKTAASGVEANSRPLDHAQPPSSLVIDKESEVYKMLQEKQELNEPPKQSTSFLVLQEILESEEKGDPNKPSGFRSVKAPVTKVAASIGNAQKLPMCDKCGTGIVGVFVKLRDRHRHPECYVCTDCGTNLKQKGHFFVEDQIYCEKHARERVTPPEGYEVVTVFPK

B1: LASP1 (protein, UniProt Q14847 1-261)
chain: MNPNCARCGKIVYPTEKVNCLDKFWHKACFHCETCKMTLNMKNYKGYEKKPYCNAHYPKQSFTMVADTPENLRLKQQSELQSQVRYKEEFEKNKGKGFSVVADTPELQRIKKTQDQISNIKYHEEFEKSRMGPSGGEGMEPERRDSQDGSSYRRPLEQQQPHHIPTSAPVYQQPQQQPVAQSYGGYKEPAAPVSIQRSAPGGGGKRYRAVYDYSAADEDEVSFQDGDTIVNVQQIDDGWMYGTVERTGDTGMLPANYVEAI
B2: Dishevelled 1 (Dvl1) (protein, UniProt O14640 1-695)
chain: MAETKIIYHMDEEETPYLVKLPVAPERVTLADFKNVLSNRPVHAYKFFFKSMDQDFGVVKEEIFDDNAKLPCFNGRVVSWLVLAEGAHSDAGSQGTDSHTDLPPPLERTGGIGDSRPPSFHPNVASSRDGMDNETGTESMVSHRRERARRRNREEAARTNGHPRGDRRRDVGLPPDSASTALSSELESSSFVDSDEDGSTSRLSSSTEQSTSSRLIRKHKRRRRKQRLRQADRASSFSSITDSTMSLNIVTVTLNMERHHFLGISIVGQSNDRGDGGIYIGSIMKGGAVAADGRIEPGDMLLQVNDVNFENMSNDDAVRVLREIVSQTGPISLTVAKCWDPTPRSYFTVPRADPVRPIDPAAWLSHTAALTGALPRYGTSPCSSAVTRTSSSSLTSSVPGAPQLEEAPLTVKSDMSAVVRVMQLPDSGLEIRDRMWLKITIANAVIGADVVDWLYTHVEGFKERREARKYASSLLKHGFLRHTVNKITFSEQCYYVFGDLCSNLATLNLNSGSSGTSDQDTLAPLPHPAAPWPLGQGYPYQYPGPPPCFPPAYQDPGFSYGSGSTGSQQSEGSKSSGSTRSSRRAPGREKERRAAGAGGSGSESDHTAPSGVGSSWRERPAGQLSRGSSPRSQASATAPGLPPPHPTTKAYTVVGGPPGGPPVRELAAVPPELTGSRQSFQKAMGNPCEFFVDIM

molecular target: Lrp6-APEX2 chimeric receptor (human) (UniProt O75581); test: proximity labelling; Lrp6-APEX2 HEK293T stable cells preincubated with Porcupine inhibitor (IWP-2), 30 min biotin-phenol, then control or Wnt3a conditioned medium with 50 ng/ml R-Spo1 and 2 for 5 or 20 min, 1 min H2O2; lysis, streptavidin pull-down of biotinylated proteins, MS/MS; biological duplicates

Row | binding | Molecule
1 | binds | Tsg101 (from UniProt Q99816 1-390)
2 | binds | Kras (from UniProt P01116 1-189)
3 | binds | BAIAP2 (from UniProt Q9UQB8 1-552)
4 | binds | Stam1 (from UniProt Q92783 1-540)
5 | binds | Hrs/Hgs (from UniProt O14964 1-777)
6 | binds | Vps28 (from UniProt Q9UK41 1-221)
7 | binds | Tankyrase-1 binding protein (from UniProt Q9C0C2 1-1729)
8 | binds | Dishevelled 2 (Dvl2) (from UniProt O14641 1-736)
9 | binds | PDLIM1 (from UniProt O00151 1-329)
10 | binds | B1
11 | binds | B2
